# Taken from: PubChem BioAssay AID1259254 (NCATS, 2017)
# Screen: 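Finding genes that stop cells copying their DNA twice in one cycle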 (primary screen)
# System: human HCT116 colorectal cancer cells
# Knock-down reagent: single siRNA against human genes
# Timing: 3 days
# Measured: 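Imaged Hoechst DNA stain sorts each cell into a cycle phase by DNA amount; per plate, G2 fraction set to 0% for non-targeting and 100% for GMNN siRNA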
# Scale: G2 robust z-score and G2 cells, % of GMNN control: higher = more G2 cells, more excess DNA replication; raw share of cells in G2: higher = larger share of cells with G2 DNA content
# Hit rule: 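Active siRNAs have a G2 robust z of 5 or more median absolute deviations over the median, which in these data means about 38% or higher of GMNN control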
# The whole screen tested about 59,000 reagents; this is an unselected part. In the full data, about 1,550 (2.6%) got an active call. 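G2 share is only a proxy for re-replication; each gene was hit by three separate siRNAs, and active genes were retested.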 Raw values vary from plate to plate and are shown uncorrected. The record does not give: the amount of reagent.
gene,PubChem SID,G2 robust z-score,"G2 cells, % of GMNN control",raw share of cells in G2 (%),Outcome
PTRHD1 (peptidyl-tRNA hydrolase domain containing 1),SID160766677,0.594,7.15,6.41,inactive
PTRHD1 (peptidyl-tRNA hydrolase domain containing 1),SID160766678,3.73,29.2,15.1,inactive
PTRHD1 (peptidyl-tRNA hydrolase domain containing 1),SID160766679,-1.2,-5.5,2.51,inactive
SMNDC1 (survival motor neuron domain containing 1),SID160728080,0.549,6.83,8.66,inactive
SMNDC1 (survival motor neuron domain containing 1),SID160728081,1.07,10.5,7.23,inactive
SMNDC1 (survival motor neuron domain containing 1),SID160728082,-0.317,0.739,6.77,inactive
FAM20A (FAM20A golgi associated secretory pathway pseudokinase),SID160742111,-0.809,-2.72,2.63,inactive
FAM20A (FAM20A golgi associated secretory pathway pseudokinase),SID160742112,-0.189,1.64,4.96,inactive
FAM20A (FAM20A golgi associated secretory pathway pseudokinase),SID160742113,0.618,7.32,5.61,inactive
FKBP14 (FKBP prolyl isomerase 14),SID160775905,0.798,8.58,7.51,inactive
FKBP14 (FKBP prolyl isomerase 14),SID160775916,-1.24,-5.72,3.92,inactive
FKBP14 (FKBP prolyl isomerase 14),SID160775927,2.51,20.6,12.9,inactive
OR7A10 (olfactory receptor family 7 subfamily A member 10),SID160766593,2.76,22.4,12,inactive
OR7A10 (olfactory receptor family 7 subfamily A member 10),SID160766594,-0.383,0.275,3.63,inactive
OR7A10 (olfactory receptor family 7 subfamily A member 10),SID160766595,-0.225,1.39,5.37,inactive
RBM47 (RNA binding motif protein 47),SID160741802,0.395,5.75,5.66,inactive
RBM47 (RNA binding motif protein 47),SID160741803,3.11,24.9,14.7,inactive
RBM47 (RNA binding motif protein 47),SID160741805,3.13,25,11.5,inactive
DPH3 (diphthamide biosynthesis 3),SID160763597,-0.4,0.154,3.7,inactive
DPH3 (diphthamide biosynthesis 3),SID160763598,-0.442,-0.146,2.99,inactive
DPH3 (diphthamide biosynthesis 3),SID160763599,-0.298,0.869,3.53,inactive
KRT19 (keratin 19),SID160776427,1.96,16.8,12.1,inactive
KRT19 (keratin 19),SID160776428,1.78,15.5,9.87,inactive
KRT19 (keratin 19),SID160776432,1.07,10.5,8.87,inactive
HIGD2A (HIG1 hypoxia inducible domain family member 2A),SID160724905,-0.295,0.893,3.26,inactive
HIGD2A (HIG1 hypoxia inducible domain family member 2A),SID160732637,0.621,7.34,5.08,inactive
HIGD2A (HIG1 hypoxia inducible domain family member 2A),SID160760546,-0.617,-1.37,3.11,inactive
NBAT1 (neuroblastoma associated transcript 1),SID160772512,0.704,7.92,6.96,inactive
NBAT1 (neuroblastoma associated transcript 1),SID160772513,2.48,20.4,9.9,inactive
NBAT1 (neuroblastoma associated transcript 1),SID160772514,-0.623,-1.41,2.56,inactive
KAAG1 (kidney associated DCDC2 antisense RNA 1),SID160765169,-0.417,0.0361,4,inactive
KAAG1 (kidney associated DCDC2 antisense RNA 1),SID160765170,0.223,4.54,5.24,inactive
KAAG1 (kidney associated DCDC2 antisense RNA 1),SID160765171,0.447,6.11,6.65,inactive
ANKRD24 (ankyrin repeat domain 24),SID160760485,1.55,13.9,8.57,inactive
ANKRD24 (ankyrin repeat domain 24),SID160760486,2.57,21.1,10,inactive
ANKRD24 (ankyrin repeat domain 24),SID160760487,-0.115,2.16,3.44,inactive
GRN (granulin precursor),SID160774307,-0.759,-2.37,2.81,inactive
GRN (granulin precursor),SID160774315,4.08,31.6,16.7,inactive
GRN (granulin precursor),SID160774324,-0.0372,2.71,6.29,inactive
GGNBP2 (gametogenetin binding protein 2),SID160749715,0.883,9.18,8.26,inactive
GGNBP2 (gametogenetin binding protein 2),SID160749716,-0.156,1.87,5.12,inactive
GGNBP2 (gametogenetin binding protein 2),SID160749717,1.28,12,5.65,inactive
ZNF670 (zinc finger protein 670),SID160754496,-0.299,0.861,3.39,inactive
ZNF670 (zinc finger protein 670),SID160754497,-0.586,-1.16,2.76,inactive
ZNF670 (zinc finger protein 670),SID160754498,-0.297,0.878,3.83,inactive
PGAP6 (post-GPI attachment to proteins 6),SID160746943,-0.425,-0.026,4.34,inactive
PGAP6 (post-GPI attachment to proteins 6),SID160746944,-0.947,-3.7,2.88,inactive
PGAP6 (post-GPI attachment to proteins 6),SID160746945,3.31,26.2,16.5,inactive
STH (saitohin),SID160724939,2.95,23.7,11.2,inactive
STH (saitohin),SID160732794,-0.118,2.14,3.88,inactive
STH (saitohin),SID160762023,-0.463,-0.293,3.47,inactive
"PRAMENP (PRAME N-terminal like, pseudogene)",SID160770383,-0.396,0.178,3.4,inactive
"PRAMENP (PRAME N-terminal like, pseudogene)",SID160770384,-0.91,-3.43,1.91,inactive
"PRAMENP (PRAME N-terminal like, pseudogene)",SID160770385,2.59,21.2,9.06,inactive
SPATC1L (spermatogenesis and centriole associated 1 like),SID160724608,0.101,3.68,4.55,inactive
SPATC1L (spermatogenesis and centriole associated 1 like),SID160724609,-0.612,-1.34,2,inactive
SPATC1L (spermatogenesis and centriole associated 1 like),SID160751900,0.382,5.66,5.99,inactive
ZNF560 (zinc finger protein 560),SID160758561,-0.0723,2.46,3.94,inactive
ZNF560 (zinc finger protein 560),SID160758562,-0.669,-1.74,2.56,inactive
ZNF560 (zinc finger protein 560),SID160758564,-0.476,-0.381,3.39,inactive
GATB (glutamyl-tRNA amidotransferase subunit B),SID160714107,1.74,15.2,9.74,inactive
GATB (glutamyl-tRNA amidotransferase subunit B),SID160714108,0.746,8.21,6.78,inactive
GATB (glutamyl-tRNA amidotransferase subunit B),SID160731406,-0.861,-3.09,2.57,inactive
RHOXF2 (Rhox homeobox family member 2),SID160752369,2.87,23.2,13.4,inactive
RHOXF2 (Rhox homeobox family member 2),SID160752370,1.59,14.1,9.32,inactive
RHOXF2 (Rhox homeobox family member 2),SID160752371,-0.491,-0.485,5.23,inactive
TBP (TATA-box binding protein),SID160717747,-0.59,-1.19,4.23,inactive
TBP (TATA-box binding protein),SID160717748,-0.695,-1.92,3.51,inactive
TBP (TATA-box binding protein),SID160717749,-0.82,-2.8,4.01,inactive
IZUMO2 (IZUMO family member 2),SID160756404,-0.14,1.98,4.92,inactive
IZUMO2 (IZUMO family member 2),SID160756405,0.187,4.28,4.46,inactive
IZUMO2 (IZUMO family member 2),SID160756406,0.173,4.19,4.1,inactive
GGT6 (gamma-glutamyltransferase 6),SID160756284,-0.238,1.29,4.61,inactive
GGT6 (gamma-glutamyltransferase 6),SID160756286,1.99,17,8.38,inactive
GGT6 (gamma-glutamyltransferase 6),SID160756287,-0.817,-2.78,1.01,inactive
DKC1 (dyskerin pseudouridine synthase 1),SID160754452,0.741,8.18,7.98,inactive
DKC1 (dyskerin pseudouridine synthase 1),SID160754463,-0.477,-0.39,3.96,inactive
DKC1 (dyskerin pseudouridine synthase 1),SID160754473,3.25,25.8,14.2,inactive
TMEM203 (transmembrane protein 203),SID160754624,-0.341,0.565,4.32,inactive
TMEM203 (transmembrane protein 203),SID160754625,-0.745,-2.27,2.65,inactive
TMEM203 (transmembrane protein 203),SID160754626,-0.219,1.43,2.24,inactive
OMA1 (OMA1 zinc metallopeptidase),SID160755165,-1.08,-4.66,3.63,inactive
OMA1 (OMA1 zinc metallopeptidase),SID160755166,0.79,8.53,7.28,inactive
OMA1 (OMA1 zinc metallopeptidase),SID160755167,-0.525,-0.726,3.99,inactive
TJP3 (tight junction protein 3),SID160738439,-0.262,1.12,3.19,inactive
TJP3 (tight junction protein 3),SID160738440,-0.965,-3.82,4.18,inactive
TJP3 (tight junction protein 3),SID160738441,5.77,43.6,17.3,active

Already shown: entries from further up.
gene,PubChem SID,G2 robust z-score,"G2 cells, % of GMNN control",raw share of cells in G2 (%),Outcome
DPH3 (diphthamide biosynthesis 3),SID160763597,-0.4,0.154,3.7,inactive
DPH3 (diphthamide biosynthesis 3),SID160763598,-0.442,-0.146,2.99,inactive
DPH3 (diphthamide biosynthesis 3),SID160763599,-0.298,0.869,3.53,inactive
KRT19 (keratin 19),SID160776427,1.96,16.8,12.1,inactive
KRT19 (keratin 19),SID160776428,1.78,15.5,9.87,inactive
